From PubChem BioAssay (NCATS)
The inconclusive results got no clear call from the source; some entries with a clear call stand among them for comparison. Where the call is inconclusive, the potency comes from a doubtful curve fit. Active and inactive are the calls of the source. Calls follow the shape of the dose curve; as a rule, active = well fitted curve in the direction sought with a large enough effect; inconclusive = small, poorly fitted or top-dose-only effect, or another doubt; inactive = no such curve, though single readings can be large; an effect the other way counts as inactive or inconclusive.

Legend:
[1] = Cell Proliferation Assay against the TMD8 Cell Line (Caspase readout at 16 hrs) (AID 651712); settings: TMD8 lymphoma cells, caspase activation luminescence; caspase activation: at 46.1 µM (top of the series); also: potency is read from the fitted curve at half-maximal effect
Procedure, shortened: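 Caspase-Glo luminescence after 16 h compound exposure of TMD8 cells, 37 °C, 5% CO2. Medium: RPMI without phenol red, 5% FBS. Normalisation: DMSO = 0%, bortezomib 9.2 uM final = 100%.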

[2] = Cell Proliferation Assay against the TMD8 Cell Line (Caspase readout at 8 hrs) (AID 651713); settings: TMD8 lymphoma cells, caspase activation luminescence; caspase activation: at 46.1 µM (top of the series); also: potency is read from the fitted curve at half-maximal effect
Procedure, shortened: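 Apoptosis read-out: Caspase-Glo luminescence after 8 h compound exposure of TMD8 lymphoma cells at 37C, 5% CO2. Signals were normalized as percent activity between DMSO and bortezomib (9.2 uM final) controls.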

[3] = Identifying Small Molecule Inhibitors of Pancreatic Cancer Stem Cells (A2780, Spheroid) (AID 1259357); settings: Potency: A2780 spheroid viability; series mostly up to 46.1 µM;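 also: potency is read from the fitted curve at half-maximal effect; compound exposure lasted 48 h before the ATP luminescence read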
Procedure, shortened: (§1)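 Endpoint: ATP-based luminescence, 48 h drug exposure. Bortezomib at 9.2 uM final as full-kill control; DMSO vehicle as negative control; activity normalized between vehicle and cell-free wells.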

[4] = Identifying Small Molecule Inhibitors of Pancreatic Cancer Stem Cells (Panc1, Spheroid) (AID 1259359); settings: Panc1 spheroid cancer stem cell viability; viability, % of control: at 46.1 µM (top of the series) unless noted;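 also: potency is read from the fitted curve at half-maximal effect; compound exposure lasted 48 h before reading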
Procedure, shortened: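 Spheroids grown 14 days in stem cell media on nonadherent hydrogel before screening; cells attached 4 h, then compound exposure 48 h at 37C, 5% CO2. CellTiter-Glo luminescence normalized to DMSO (no inhibition) and no-cell wells (full inhibition).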

[5] = Identifying Small Molecule Inhibitors of Pancreatic Cancer Stem Cells (SN12C, Spheroid) (AID 1259360); settings: Potency: SN12C spheroid viability; also: potency is read from the fitted curve at half-maximal effect
Procedure, shortened: as §1

[6] = Identifying Small Molecule Inhibitors of Pancreatic Cancer Stem Cells (Panc1, Adherent) (AID 1259362); settings: Potency: viability unless noted; viability, % of control: at 46.1 µM (top of the series) unless noted; also: potency is read from the fitted curve at half-maximal effect;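 as to viability, % of control: compound exposure lasted 48 h before the viability read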
Procedure, shortened: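 Cytotoxicity read by CellTiter-Glo luminescence after 48 h compound exposure at 37C; percent activity scaled between DMSO-treated cells and cell-free wells. Spheroid formats used cells pre-formed 14 days in stem cell media on hydrogel.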

[7] = Identifying Small Molecule Inhibitors of Pancreatic Cancer Stem Cells (A278, Adherent) (AID 1259361); also: nearly all actives have a fitted effect of over 35% in size
Procedure, shortened: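 Spheroids grown 14 days in stem cell media on hydrogel-coated nonadherent plates; 2D lines seeded directly. Compounds added after 4 h attachment, 48 h at 37C, 5% CO2; CellTiter-Glo luminescence normalized to DMSO (no inhibition) and no-cell wells (full inhibition).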

[8] = P-glycoprotein substrates identified in KB-8-5-11 adenocarcinoma cell line, qHTS therapeutic library screen (AID 1346987); also: potency is read from the fitted curve at half-maximal effect; nearly all actives have a fitted effect of over 65% in size
Procedure, shortened: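 Compounds are pinned in dose-response onto KB-8-5-11 cells (500 cells/well, colchicine-free medium) and left 72 h at 37 degree C. CellTiter-Glo luminescence then yields AC50 values.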

[9] = qHTS of pediatric cancer cell lines to identify multiple opportunities for drug repurposing: Primary screen for BT-12 cells (AID 1347101); also: potency is read from the fitted curve at half-maximal effect; nearly all actives have a fitted effect of over 25% in size
Procedure, shortened: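 Cells (500-1,000/well) rested 5 h, then received compounds for 48 h; metabolically active cells were measured by CellTiter-Glo luminescence. Final concentrations spanned up to 46 µM (MIPE, 11-point) or 0.59 nM-46 µM (NPC, 8-point) in primary screens, 11-point in follow-ups.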

[10] = qHTS of pediatric cancer cell lines to identify multiple opportunities for drug repurposing: Primary screen for Rh30 cells (AID 1347107); also: nearly all actives have a fitted effect of over 75% in size; also: potency is read from the fitted curve at half-maximal effect
Procedure, shortened: (§2)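 Viability after 48 h compound treatment at 37C, 500-1,000 cells/well, read as ATP luminescence with CellTiter-Glo. Primary screens used 11-point (MIPE, 0.78 nM-46 µM) or 8-point (NPC, 0.59 nM-46 µM) final concentrations; follow-up screens used 11-point dilutions.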

[11] = qHTS of pediatric cancer cell lines to identify multiple opportunities for drug repurposing: Primary screen for Rh41 cells (AID 1347108); also: potency is read from the fitted curve at half-maximal effect; nearly all actives have a fitted effect of over 70% in size
Procedure, shortened: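 Primary screen of approved and investigational compounds on cells in growth media at 37 degrees C, 5% CO2. MIPE set at 11-point and NPC set at 8-point dilutions; viability scored by ATP-based luminescence at 48 hours.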

[12] = Quantitative High-Throughput drug screen in 47 multiple myeloma cell lines against the NCATS MIPE library collection: JIM1_ECACC cell viability assay (AID 1918964; also: potency is read from the fitted curve at half-maximal effect)
Procedure, shortened: (§3)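 Approved and investigational drugs from MIPE 4.0 were added by pin tool to 500 cells per well. After 48 hours at 37C, ATP-based CellTiter-Glo luminescence indicated remaining viability.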

[13] = Quantitative High-Throughput drug screen in 47 multiple myeloma cell lines against the NCATS MIPE library collection: KMS20_JCRB cell viability assay (AID 1918973); settings: CellTiter-Glo ATP, 48 h; series mostly up to 45.8 µM; also: nearly all actives have a fitted effect of over 45% in size; also: potency is read from the fitted curve at half-maximal effect
Procedure, shortened: as §3

[14] = Quantitative High-Throughput drug screen in 47 multiple myeloma cell lines against the NCATS MIPE library collection: KMS21BM_JCRB cell viability assay (AID 1918974); settings: ATP luminescence, 48 h; viability: at 45.8 µM (top of the series); also: potency is read from the fitted curve at half-maximal effect
Procedure, shortened: as §3

[15] = Quantitative High-Throughput drug screen in 47 multiple myeloma cell lines against the NCATS MIPE library collection: MOLP8_DSMZ cell viability assay (AID 1918977); settings: MOLP8 myeloma viability, CellTiter-Glo ATP luminescence, 48 h; viability (% of control): at 45.8 µM (top of the series); also: potency is read from the fitted curve at half-maximal effect; nearly all actives have a fitted effect of over 45% in size
Procedure, shortened: (§4)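 Cells were exposed to library compounds for 48 hours, after which ATP was measured by CellTiter-Glo. Signal was taken as median relative luminescence units.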

[16] = Quantitative High-Throughput drug screen in 47 multiple myeloma cell lines against the NCATS MIPE library collection: LP1_DSMZ cell viability assay (AID 1918982); also: potency is read from the fitted curve at half-maximal effect; nearly all actives have a fitted effect of over 35% in size
Procedure, shortened: as §4

[17] = Quantitative High-Throughput drug screen in 47 multiple myeloma cell lines against the NCATS MIPE library collection: L363_DSMZ cell viability assay (AID 1918984); settings: L363 myeloma viability, CellTiter-Glo ATP luminescence, 48 h; viability (% of control): at 45.8 µM (top of the series); also: potency is read from the fitted curve at half-maximal effect; nearly all actives have a fitted effect of over 40% in size
Procedure, shortened: as §4

[18] = tested on: CRL-7250; assay: Cytotoxic Profiling of Annotated Libraries Using Quantitative High-Throughput Screening (AID 1296008); settings: Five cell lines viability, CellTiter-Glo ATP luminescence, 48-72 h; max response: stronger effect = lower value; also: potency is read from the fitted curve at half-maximal effect; nearly all actives have a fitted effect of over 60% in size
Procedure, shortened: (§5)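 Cells exposed to compounds for 48 or 72 hr at 37 degrees Celsius. Viability read as ATP-coupled luminescence with CellTiter-Glo after 10 min at room temperature.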

[19] = tested on: HEK293; assay: as above; settings: Five cell lines viability, CellTiter-Glo ATP luminescence, 48-72 h; max response: stronger effect = lower value
Procedure, shortened: as §5

[20] = qHTS of pediatric cancer cell lines to identify multiple opportunities for drug repurposing: Primary screen for Rh18 cells (AID 1347102); also: potency is read from the fitted curve at half-maximal effect; nearly all actives have a fitted effect of over 65% in size
Procedure, shortened: as §2

SMILES	Potency [1]	Potency [2]	Potency [3]	Potency [4]	Potency [5]	Potency [6]	IC50 (viability decrease) [7]	Potency [8]	Potency [9]	Potency [10]	Potency [11]	Potency [12]	Potency [13]	Potency [14]	Potency [15]	Potency [16]	Potency [17]	Potency [18]	Potency [19]	Potency [20]
NC(=O)Nc1cc(-c2ccc(CN3CCOCC3)c(F)c2)sc1C(=O)N[C@H]1CCCNC1	active: 0.0469 µM	inconclusive: 0.209 µM [activator, full curve, poor fit]	active: 20.9 µM	active: 9.35 µM	active: 16.6 µM	active: 0.833 µM	–	–	–	–	–	–	–	–	–	–	–	–	–	–
CCC[C@H](NC(=O)C(C#N)=Cc1cccc(Br)n1)c1ccccc1	inconclusive: 2.09 µM [activator, partial curve]	–	inconclusive: 37.2 µM [cytotoxic, single point]	–	inconclusive: 29.6 µM [cytotoxic, single point]	active: 20.9 µM	active: 26.4 µM	active: 18.7 µM	active: 27.3 µM	inconclusive: 18.7 µM [cytotoxic, partial curve]	active: 14.8 µM	inconclusive: 9.35 µM [cytotoxic, partial curve, poor fit]	inconclusive: 1.18 µM [cytotoxic, full curve, poor fit]	inconclusive: 23.5 µM [rising, partial curve, poor fit]	active: 1.48 µM	active: 5.26 µM	active: 7.43 µM	inconclusive: 18.7 µM [inhibitor, partial curve, poor fit]	–	–
NC(=O)c1ccc(-c2nc(-c3ccc4c(c3)OCO4)c(-c3ccccn3)[nH]2)cc1	inactive	–	inconclusive: 3.72 µM [rising, full curve, poor fit]	inconclusive: 0.0332 µM [cytotoxic, full curve, poor fit]	–	inactive	inactive	inconclusive: 37.2 µM [inhibitor, partial curve, poor fit]	–	–	–	inconclusive: 0.0013 µM [rising, full curve, poor fit]	inactive	inconclusive: 1.66 µM [rising, partial curve]	–	inconclusive: 16.6 µM [cytotoxic, partial curve, poor fit]	inconclusive: 0.0526 µM [cytotoxic, full curve, poor fit]	–	inconclusive: 37.2 µM [inhibitor, single point]	–
Cc1c(CCOc2ccc(C(=O)O)cc2)c2cc(Cl)ccc2n1C(c1ccccc1)c1ccccc1	–	inactive	inconclusive: 0.0118 µM [cytotoxic, full curve, poor fit]	inconclusive: 0.0469 µM [cytotoxic, full curve, poor fit]	–	inconclusive: 11.8 µM [cytotoxic, single point]	inactive	–	inconclusive: 24.3 µM [cytotoxic, partial curve]	inconclusive: 23.5 µM [cytotoxic, partial curve, poor fit]	–	inactive	inactive	inconclusive: 37.2 µM [rising, partial curve]	inconclusive: 10.5 µM [cytotoxic, full curve, poor fit]	inconclusive: 11.8 µM [cytotoxic, partial curve, poor fit]	inconclusive: 1.05 µM [cytotoxic, full curve, poor fit]	–	inconclusive: 26.4 µM [inhibitor, single point]	–
COc1cccc2cc(-c3nc(C4CCC(C(=O)O)CC4)n4ncnc(N)c34)[nH]c12 (stereo not given)	inconclusive: 20.9 µM [activator, partial curve]	inconclusive: 20.9 µM [activator, partial curve, poor fit]	inconclusive: 0.209 µM [cytotoxic, full curve, poor fit]	–	active: 0.372 µM	inactive	inconclusive: 0.418 µM [cytotoxic, full curve]	–	active: 0.344 µM	inactive	inconclusive: 0.372 µM [cytotoxic, full curve]	inconclusive: 0.059 µM [cytotoxic, full curve]	inconclusive: 3.32 µM [cytotoxic, partial curve, poor fit]	active: 0.469 µM	active: 0.418 µM	inconclusive: 0.132 µM [cytotoxic, full curve]	inconclusive: 0.166 µM [cytotoxic, full curve]	inconclusive: 0.0291 µM [inhibitor, full curve, poor fit]	–	inconclusive: 0.372 µM [cytotoxic, full curve]
